From PubChem BioAssay AID504467 (National Center for Advancing Translational Sciences (NCATS), 2011)
About 7,700 (2.3%) of roughly 330,000 compounds were called active. The inconclusive results got no clear call from the source; some entries with a clear call stand among them for comparison. Calls follow the shape of the dose curve; as a rule, active = well fitted inhibition curve with a large enough effect; inconclusive = small, poorly fitted or top-dose-only effect, or effect the other way; inactive = flat fitted curve, though single readings scatter. Where the call is inconclusive, the potency comes from a doubtful curve fit.

Test: qHTS screen for small molecules that inhibit ELG1-dependent DNA repair in human embryonic kidney (HEK293T) cells expressing luciferase-tagged ELG1; also: nearly all actives have a fitted effect of over 55% in size
Conditions: HEK293T ELG1-luciferase reporter, luminescence, 16 h, DNA damage induced by 5-fluorouridine; series mostly up to 46.1 µM
Outline: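 In this reporter screen, reduction of luminescence relative to DMSO vehicle indicated activity. Compounds and 5-fluorouridine were added together to 2,000 cells per well, incubated for 16 hr at 37 °C, then developed with ONE-Glo.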
Potency is read from the fitted curve at half-maximal effect.

Row | SMILES | Potency
1 | Cc1ccc(NC(=O)Nc2ccc(F)c(Cl)c2)cc1 | inconclusive: 13 µM [activator, partial curve]
2 | Cc1[nH]c2ccccc2c1C(c1ccncc1)N1CCN(c2ccc(F)cc2)CC1 (centres undefined) | inconclusive: 16.4 µM [inhibitor, single point]
3 | Cc1nccc(-c2sc(-c3cccs3)nc2C)n1 | inconclusive: 20.6 µM [activator, partial curve]
4 | Fc1ccc(COc2ccc(/C=N/n3cnnc3)cc2)cc1 | inactive
5 | Cc1ccc(S(=O)(=O)N2CCCC(C(=O)O)C2)s1 (centres undefined) | inconclusive: 14.6 µM [activator, partial curve, poor fit]
6 | N#Cc1ccccc1OCC(=O)Nc1ccc2c(c1)OCCO2 | inconclusive: 5.01 µM [activator, partial curve]
7 | O=C(c1ccccc1)c1cccn1CC(=O)N1CCc2ccccc2C1 | inactive
8 | COc1ccc(NC(=O)CC2C(=O)N(c3cccc(OC)c3)C(=O)N2CCC(C)C)cc1 (centres undefined) | inconclusive: 8.2 µM [inhibitor, partial curve]
9 | CCCSc1ccc([C@@H]2[C@H]3C(=O)N(C)C(=O)[C@H]3[C@]3(C(=O)OC)CCCN23)cc1OC | inactive
10 | O=C(OCC(=O)N1CCCc2ccccc21)c1cccnc1Cl | inactive
11 | COc1ccc(S(=O)(=O)Nc2ccc(C(N)=O)cc2)cc1C(=O)N1CCCCCC1 | inactive
12 | COc1ccc(/C(C)=N/Nc2ccccc2Cl)c(O)c1 | inconclusive: 20.6 µM [activator, partial curve]
13 | O=S(=O)(Nc1ccc(S(=O)(=O)Nc2ccccc2)cc1)c1ccccc1 | inactive
14 | CCOc1ccc(S(=O)(=O)N2CCN(CC)CC2)cc1NC(=O)c1ccccc1F | inactive
15 | Cc1ccc(-c2noc(CCC(=O)N3CCCC3)n2)cc1 | inconclusive: 16.4 µM [activator, partial curve]
16 | CC(NC(=O)c1cccs1)C(c1cccs1)N1CCN(Cc2ccccc2)CC1 (centres undefined) | inconclusive: 29.1 µM [inhibitor, single point]
17 | COc1ccc(NC(=O)CCN2CCN(S(=O)(=O)c3ccc(OC)cc3)CC2)cc1 | inconclusive: 0.0164 µM [activator, full curve, poor fit]
18 | O=C(CCN1C(=O)/C(=C/C=C/c2ccccc2)SC1=S)Nc1nc2ccccc2s1 | inactive
19 | COc1ccc(CCNC(=O)COc2ccc(S(=O)(=O)NC3CCCCC3)cc2Cl)cc1 | inconclusive: 35.5 µM [inhibitor, single point]
20 | CN(C)C(=O)CCC(=O)N(C)CC1CCCN(CCc2ccc(F)cc2)C1 (centres undefined) | inconclusive: 25.9 µM [activator, partial curve, poor fit]
21 | CC[C@]12c3[nH]c4ccc(OC)cc4c3CCN1C(=O)C(CC(=O)NCc1cccc(C(F)(F)F)c1)C[C@@H]2C(=O)N1CCN(C(=O)c2ccco2)CC1 (some centres undefined) | inactive
22 | O=C1C=C(/C=C/c2ccccc2)C[C@@H](c2ccc3c(c2)OCO3)C1 | inactive
23 | C/C(=N\NC(=O)CC(C)C)c1c(C(F)(F)F)[nH]n(-c2nc3ccccc3s2)c1=O | inconclusive: 20.6 µM [activator, partial curve]
24 | COc1ccc(CCN2CC(C(=O)NCCN3CCOC3=O)CCC2=O)cc1 (centres undefined) | inactive
25 | COc1ccc(N(CC(=O)NCCSCc2ccccc2Cl)S(C)(=O)=O)cc1Cl | inactive

By substructure: the entries above with four or more nitrogen atoms.
Row | SMILES | Potency
2 | Cc1[nH]c2ccccc2c1C(c1ccncc1)N1CCN(c2ccc(F)cc2)CC1 (centres undefined) | inconclusive: 16.4 µM [inhibitor, single point]
4 | Fc1ccc(COc2ccc(/C=N/n3cnnc3)cc2)cc1 | inactive
21 | CC[C@]12c3[nH]c4ccc(OC)cc4c3CCN1C(=O)C(CC(=O)NCc1cccc(C(F)(F)F)c1)C[C@@H]2C(=O)N1CCN(C(=O)c2ccco2)CC1 (some centres undefined) | inactive
23 | C/C(=N\NC(=O)CC(C)C)c1c(C(F)(F)F)[nH]n(-c2nc3ccccc3s2)c1=O | inconclusive: 20.6 µM [activator, partial curve]

(more compounds)

Row | SMILES | Potency
26 | CCN(CC(=O)Nc1ccc(NC(C)=O)cc1)C(=O)c1ccccc1CCc1ccccc1 | inactive
27 | CC1(C(=O)Nc2nc3ccccc3s2)CC1(Br)Br (centres undefined) | inconclusive: 9.2 µM [activator, partial curve]
28 | Cc1nn(-c2cccc([N+](=O)[O-])c2)c(N)c1-c1ccccc1 | inconclusive: 8.2 µM [activator, partial curve]
29 | O=C(NC1CCCCC1)c1cc(S(=O)(=O)N2CCOCC2)c(Cl)cc1Cl | inconclusive: 6.51 µM [inhibitor, partial curve, poor fit]
30 | CCCn1nnc(NC(=O)c2ccc(Br)cc2)n1 | inconclusive: 18.4 µM [activator, partial curve, poor fit]
31 | CC1C(=O)N2CCCc3cc(NS(=O)(=O)c4ccc(F)cc4)cc1c32 (centres undefined) | inactive
32 | CN(Cc1ccccc1)Cc1nc2c(c(=O)n(C)c(=O)n2C)n1Cc1ccc(F)cc1 | active: 18.4 µM
33 | Cc1ccc2nc(-c3ccncc3)cc(C(=O)Nc3ccc4c(c3)OCCO4)c2c1 | inconclusive: 29.1 µM [inhibitor, single point]
34 | CN1CCN(Cc2nc3c(c(=O)n(C)c(=O)n3C)n2CCCc2ccccc2)CC1 | inactive
35 | CCOC(=O)CNC(=O)CN1CCC(c2nc3ccccc3[nH]2)CC1 | inactive
36 | Cc1ccc(S(=O)(=O)N2CCCCC2)cc1C(=O)OCC(=O)N1c2ccccc2NC(=O)C1(C)C | inconclusive: 25.9 µM [inhibitor, single point]
37 | O=C(Nc1ccc(S(=O)(=O)NCC2CCCO2)cc1)c1ccc(F)cc1 (centres undefined) | inactive
38 | COc1cccc(NC(=O)c2cccnn2)c1 | inconclusive: 13 µM [activator, partial curve]
39 | O=C(Nc1cccc(F)c1)NC1CCCCCCC1 | inconclusive: 10.3 µM [activator, partial curve]
40 | COc1ccc(CC(=O)N2CCN=C2SCc2ccc([N+](=O)[O-])cc2)cc1 | inconclusive: 29.1 µM [inhibitor, single point]
41 | O=C(Cn1ncc2c3ccccc3n(Cc3ccccc3F)c2c1=O)NCCCN1CCCC1=O | inactive
42 | Cc1ccc(NC(=O)CCCc2ccccc2)c([N+](=O)[O-])c1 | inconclusive: 23.1 µM [activator, single point]
43 | Cc1occc1C(=O)N/N=C/C=C/c1ccccc1 | inconclusive: 29.1 µM [activator, single point]
44 | O=S(=O)(Nc1cc(S(=O)(=O)N2CCOCC2)ccc1NCC1CCCO1)c1ccc(F)cc1 (centres undefined) | inactive
45 | CCOC(=O)COc1ccc(/C=C2/C(=O)NN(c3ccc(F)cc3)C2=O)cc1OC | inactive
46 | CC1(C)Cc2c(c(N3CCCCC3)[nH]c(=S)c2C#N)CS1 | inactive
47 | CCn1c(CCC(N)=O)nnc1SCC(=O)Nc1cccc(S(=O)(=O)N2CCCC2)c1 | inconclusive: 16.4 µM [activator, single point]
48 | CCCC(=O)N1CCN(c2ccc(NC(=O)c3ccc([N+](=O)[O-])o3)cc2)CC1 | inconclusive: 29.1 µM [inhibitor, single point]
49 | COc1cccc(NC(=S)N/N=C2/CCCCc3ccccc32)c1 | inconclusive: 20.6 µM [activator, partial curve]
50 | CCCCn1c(CN(C)Cc2ccccc2)nc2c1c(=O)n(C)c(=O)n2C | inconclusive: 10.3 µM [inhibitor, partial curve, poor fit]

Row | SMILES | Potency
51 | c1ccc(COc2ccc(OCCN3CCCCC3)cc2)cc1 | inconclusive: 18.4 µM [activator, single point]
52 | CCOc1ccccc1C(=O)NN1C(=O)CCC1=O | inactive
53 | Cc1ccc(-c2csc(N(CC3CCCO3)C(=O)c3ccco3)n2)cc1 (centres undefined) | inconclusive: 14.6 µM [activator, single point]
54 | COc1cccc(NC(=O)CCNC(=O)Cn2ccc3ccccc3c2=O)c1 | inactive
55 | COc1ccc(O)c(-c2[nH]ncc2C(=O)c2ccccc2C)c1 | inconclusive: 18.4 µM [inhibitor, single point]
56 | O=C(COc1cccc(C(F)(F)F)c1)N1CCN(c2ccc(O)cc2)CC1 | active: 16.4 µM
57 | CCCCN(C)C(=O)c1cc2c(s1)-c1ccccc1S(=O)(=O)C2 | inactive
58 | COc1cc(OC)cc(-c2nnc(Sc3ccc(C=O)cc3[N+](=O)[O-])o2)c1 | inactive
59 | Cc1cc(C)n(-c2nc3ccccc3n3cnnc23)n1 | inactive
60 | O=C(Nc1nc2c(s1)CCCC2)c1ccc(Br)s1 | inconclusive: 1.16 µM [activator, partial curve]
61 | N=c1c(-c2nc3ccccc3[nH]2)cc(C(=O)c2cccs2)nn1-c1ccccc1 | inconclusive: 0.461 µM [inhibitor, full curve, poor fit]
62 | CC(C)N=C(NS(=O)(=O)c1ccccc1)C(Cl)(Cl)Cl | active: 5.17 µM
63 | Cc1cccc(NC(=O)[C@@H]2CCCN2S(=O)(=O)c2ccc(Cl)cc2)c1 | inactive
64 | Cc1ccc(CS(=O)(=O)Cc2ccc(C(=O)NCc3cccs3)o2)cc1 | inconclusive: 9.2 µM [inhibitor, partial curve]
65 | CC(C)(C)c1ccc(-c2noc(CCC(=O)N3CCOCC3)n2)cc1 | inconclusive: 4.11 µM [activator, partial curve]
66 | CCN(CC)S(=O)(=O)c1cccc(-c2cn3cc(C)ccc3n2)c1 | inconclusive: 4.61 µM [activator, single point]
67 | CCN(CC(=O)Nc1c(F)cccc1F)C(=O)C1CCN(S(=O)(=O)c2ccc(C)c(C)c2)CC1 | inactive
68 | C=CCNC(=O)C(=O)Nc1ccc2c(c1)N(S(=O)(=O)c1cccs1)CCC2 | inconclusive: 25.9 µM [inhibitor, single point]
69 | Cn1nnc(NC(=O)c2ccccc2F)n1 | inactive
70 | COc1ccc(S(=O)(=O)NCCCn2ccnc2)cc1C(C)(C)C | inactive
71 | Cc1c(CCOC(=O)C23CC4CC(CC(C)(C4)C2)C3)sc[n+]1Cc1ccccc1 | inactive
72 | COc1ccc(Cn2c(SC)nc3ccccc32)cc1[N+](=O)[O-] | inconclusive: 7.31 µM [activator, partial curve]
73 | Cc1ccc(NC(=O)C(NS(=O)(=O)c2cccc3nsnc23)C(C)C)nc1 (centres undefined) | inactive
74 | CN(C)/C=C/c1onc(-c2ccccc2Cl)c1C#N | inconclusive: 20.6 µM [activator, partial curve]
